In patent publication US9517222B2, “Method for the treatment of senile dementia of the Alzheimer's type” (Phenomenome Discoveries Inc., priority 2007, dated 2016):
Some values come without a unit; they compare only within their column.

Key:
[1] = Serum ethanolamine phospholipid levels in human cohorts (dementia severity, post-mortem pathology, age) by flow-injection MS/MS
[2] = Serum ethanolamine phospholipid ratios to PtdEt 16:0/18:0 (M01) in human cohorts
[3] = serum, females, post mortem SDAT
[4] = serum, females, post mortem control

## CCCCCCCCCCCCCCCCCC(=O)O[C@H](COC(=O)CCCCCCCCCCCCCCC)COP(=O)(O)OCCN [Metabolite M01, PtdEt 16:0/18:0]
[1]; AD, All to CN, Male
  Ratio of serum levels: 1.028
[1]; ADAS 5-19 to CN, Male
  Ratio of serum levels: 1.011
[1]; ADAS 20-39 to 5-19, Male
  Ratio of serum levels: 1.005
[1]; ADAS 20-39 to CN, Male
  Ratio of serum levels: 1.016
[1]; ADAS 40-70 to 5-19, Male
  Ratio of serum levels: 1.003
[1]; ADAS 40-70 to 20-39, Male
  Ratio of serum levels: 0.998
[1]; ADAS 40-70 to CN, Male
  Ratio of serum levels: 1.014
[1]; Cognitive Normal, Female
  Serum level, Mean: 0.118
[1]; Cognitive Normal, Male
  Average serum level, Mean: 0.116
[1]; Post Mortem Ctl, Male
  Serum level, Mean: 0.127
[1]; Post Mortem SDAT Male
  Serum level, Mean: 0.089
[1]; Post mortem SDAT vs Control, Male
  Ratio of serum levels: 0.702
[1]; SDAT, ADAS 5-19, Female
  Serum level, Mean: 0.109
[1]; SDAT, ADAS 5-19, Male
  Average serum level, Mean: 0.117
[1]; SDAT, ADAS 20-39, Female
  Serum level, Mean: 0.112
[1]; SDAT, ADAS 20-39, Male
  Average serum level, Mean: 0.117
[1]; SDAT, ADAS 40-70, Female
  Serum level, Mean: 0.118
[1]; SDAT, ADAS 40-70, Male
  Average serum level, Mean: 0.117
[1]; SDAT_all, Female
  Serum level, Mean: 0.113
[1]; SDAT_all, Male
  Average serum level, Mean: 0.119
[1]; serum level ratio, females, ADAS 5-19 vs CN
  Ratio, ADAS 5-19 to CN, Female: 0.929
[1]; serum level ratio, females, ADAS 20-39 vs ADAS 5-19
  Ratio, ADAS 20-39 to 5-19, Female: 1.023
[1]; serum level ratio, females, ADAS 20-39 vs CN
  Ratio, ADAS 20-39 to CN, Female: 0.951
[1]; serum level ratio, females, ADAS 40-70 vs ADAS 5-19
  Ratio, ADAS 40-70 to 5-19, Female: 1.080
[1]; serum level ratio, females, ADAS 40-70 vs ADAS 20-39
  Ratio, ADAS 40-70 to 20-39, Female: 1.056
[1]; serum level ratio, females, ADAS 40-70 vs CN
  Ratio, ADAS 40-70 to CN, Female: 1.004
[1]; serum level ratio, females, age 50-59 vs 40-49
  Ratio, 50-59 vs. 40-49, Female: 0.925
[1]; serum level ratio, females, age 60-69 vs 40-49
  Ratio, 60-69 vs. 40-49, Female: 1.118
[1]; serum level ratio, females, age 70+ vs 40-49
  Ratio, 70+ vs. 40-49, Female: 1.110
[1]; serum level ratio, females, all AD vs cognitively normal
  Ratio, AD, All to CN, Female: 0.963
[1]; serum level ratio, females, autopsy AD vs control
  Ratio, Autopsy AD vs. Control, Female: 0.697
[1]; serum level ratio, males, age 50-59 vs 40-49
  Ratio, 50-59 vs. 40-49, Male: 0.955
[1]; serum level ratio, males, age 60-69 vs 40-49
  Ratio, 60-69 vs. 40-49, Male: 1.110
[1]; serum level ratio, males, age 70+ vs 40-49
  Ratio, 70+ vs. 40-49, Male: 1.097
[1]; serum, females, age 30-39
  Mean serum level, Age Ctl, 30-39, Female: 0.103
[1]; serum, females, age 40-49
  Mean serum level, Age Ctl, 40-49, Female: 0.114
[1]; serum, females, age 50-59
  Mean serum level, Age Ctl, 50-59, Female: 0.105
[1]; serum, females, age 60-69
  Mean serum level, Age Ctl, 60-69, Female: 0.127
[1]; serum, females, age 70+
  Mean serum level, Age Ctl, 70+, Female: 0.126
[1]; [3]
  Mean serum level, Post Mortem SDAT, Female: 0.124
[1]; [4]
  Mean serum level, Post Mortem Ctl, Female: 0.179
[1]; serum, males, age 30-39
  Mean serum level, Age Ctl, 30-39, Male: 0.122
[1]; serum, males, age 40-49
  Mean serum level, Age Ctl, 40-49, Male: 0.119
[1]; serum, males, age 50-59
  Mean serum level, Age Ctl, 50-59, Male: 0.113
[1]; serum, males, age 60-69
  Mean serum level, Age Ctl, 60-69, Male: 0.132
[1]; serum, males, age 70+
  Mean serum level, Age Ctl, 70+, Male: 0.130
[2]; AD, All to CN, Male
  Ratio of ethanolamine phospholipid ratios to M01 between cohorts: 1.000
[2]; ADAS 5-19 to CN, Male
  Ratio of ethanolamine phospholipid ratios to M01 between cohorts: 1.000
[2]; ADAS 20-39 to CN, Male
  Ratio of ethanolamine phospholipid ratios to M01 between cohorts: 1.000
[2]; ADAS 40-70 to CN, Male
  Ratio of ethanolamine phospholipid ratios to M01 between cohorts: 1.000
[2]; Cognitive Normal, Male, serum
  Average serum ethanolamine phospholipid ratio to M01, Mean: 1.000
[2]; SDAT, ADAS 5-19, Male, serum
  Average serum ethanolamine phospholipid ratio to M01, Mean: 1.000
[2]; SDAT, ADAS 20-39, Male, serum
  Average serum ethanolamine phospholipid ratio to M01, Mean: 1.000
[2]; SDAT, ADAS 40-70, Male, serum
  Average serum ethanolamine phospholipid ratio to M01, Mean: 1.000
[2]; SDAT_all, Male, serum
  Average serum ethanolamine phospholipid ratio to M01, Mean: 1.000
[2]; human serum, females aged 30-39
  Ethanolamine Phospholipid Ratio to M01, Mean, Age Ctl, 30-39, Female: 1.000
[2]; human serum, females aged 40-49
  Ethanolamine Phospholipid Ratio to M01, Mean, Age Ctl, 40-49, Female: 1.000
[2]; human serum, females aged 50-59
  Ethanolamine Phospholipid Ratio to M01, Mean, Age Ctl, 50-59, Female: 1.000
[2]; human serum, females aged 50-59 vs. females aged 40-49
  Ratio of Ethanolamine Phospholipid Ratio to M01, 50-59 vs. 40-49, Female: 1.000
[2]; human serum, females aged 60-69
  Ethanolamine Phospholipid Ratio to M01, Mean, Age Ctl, 60-69, Female: 1.000
[2]; human serum, females aged 60-69 vs. females aged 40-49
  Ratio of Ethanolamine Phospholipid Ratio to M01, 60-69 vs. 40-49, Female: 1.000
[2]; human serum, females aged 70+
  Ethanolamine Phospholipid Ratio to M01, Mean, Age Ctl, 70+_Female: 1.000
[2]; human serum, females aged 70+ vs. females aged 40-49
  Ratio of Ethanolamine Phospholipid Ratio to M01, 70+ vs. 40-49, Female: 1.000
[2]; human serum, males aged 50-59 vs. males aged 40-49
  Ratio of Ethanolamine Phospholipid Ratio to M01, 50-59 vs. 40-49, Male: 1.000
[2]; human serum, males aged 60-69 vs. males aged 40-49
  Ratio of Ethanolamine Phospholipid Ratio to M01, 60-69 vs. 40-49, Male: 1.000
[2]; human serum, males aged 70+ vs. males aged 40-49
  Ratio of Ethanolamine Phospholipid Ratio to M01, 70+ vs. 40-49, Male: 1.000
[2]; serum, females, ADAS 5-19 vs cognitive normal
  Ratio of ethanolamine phospholipid ratio to M01, ADAS 5-19 to CN, Female: 1.000
[2]; serum, females, ADAS 20-39 vs ADAS 5-19
  Ratio of ethanolamine phospholipid ratio to M01, ADAS 20-39 to 5-19, Female: 1.000
[2]; serum, females, ADAS 20-39 vs cognitive normal
  Ratio of ethanolamine phospholipid ratio to M01, ADAS 20-39 to CN, Female: 1.000
[2]; serum, females, ADAS 40-70 vs ADAS 5-19
  Ratio of ethanolamine phospholipid ratio to M01, ADAS 40-70 to 5-19, Female: 1.000
[2]; serum, females, ADAS 40-70 vs ADAS 20-39
  Ratio of ethanolamine phospholipid ratio to M01, ADAS 40-70 to 20-39, Female: 1.000
[2]; serum, females, ADAS 40-70 vs cognitive normal
  Ratio of ethanolamine phospholipid ratio to M01, ADAS 40-70 to CN, Female: 1.000
[2]; serum, females, SDAT ADAS 5-19
  Ethanolamine phospholipid ratio to M01, Mean, SDAT, ADAS 5-19, Female: 1.000
[2]; serum, females, SDAT ADAS 20-39
  Ethanolamine phospholipid ratio to M01, Mean, SDAT, ADAS 20-39, Female: 1.000
[2]; serum, females, SDAT ADAS 40-70
  Ethanolamine phospholipid ratio to M01, Mean, SDAT, ADAS 40-70, Female: 1.000
[2]; serum, females, all AD vs cognitive normal
  Ratio of ethanolamine phospholipid ratio to M01, AD, All to CN, Female: 1.000
[2]; serum, females, all SDAT
  Ethanolamine phospholipid ratio to M01, Mean, SDAT_all Female: 1.000
[2]; serum, females, autopsy AD vs post mortem control
  Ratio of ethanolamine phospholipid ratio to M01, Autopsy AD vs. Control, Female: 1.000
[2]; serum, females, cognitive normal
  Ethanolamine phospholipid ratio to M01, Mean, Cognitive Normal, Female: 1.000
[2]; [3]
  Ethanolamine phospholipid ratio to M01, Mean, Post Mortem SDAT Female: 1.000
[2]; [4]
  Ethanolamine phospholipid ratio to M01, Mean, Post Mortem Ctl, Female: 1.000
[2]; serum, males, SDAT ADAS 20-39 vs ADAS 5-19
  Ratio of ethanolamine phospholipid ratio to M01, ADAS 20-39 to 5-19, Male: 1.000
[2]; serum, males, SDAT ADAS 40-70 vs ADAS 5-19
  Ratio of ethanolamine phospholipid ratio to M01, ADAS 40-70 to 5-19, Male: 1.000
[2]; serum, males, SDAT ADAS 40-70 vs ADAS 20-39
  Ratio of ethanolamine phospholipid ratio to M01, ADAS 40-70 to 20-39, Male: 1.000
[2]; serum, males, age control 30-39
  Ethanolamine phospholipid ratio to M01, Mean, Age Ctl, 30-39, Male: 1.000
[2]; serum, males, age control 40-49
  Ethanolamine phospholipid ratio to M01, Mean, Age Ctl, 40-49, Male: 1.000
[2]; serum, males, age control 50-59
  Ethanolamine phospholipid ratio to M01, Mean, Age Ctl, 50-59, Male: 1.000
[2]; serum, males, age control 60-69
  Ethanolamine phospholipid ratio to M01, Mean, Age Ctl, 60-69, Male: 1.000
[2]; serum, males, age control 70+
  Ethanolamine phospholipid ratio to M01, Mean, Age Ctl, 70+_Male: 1.000
[2]; serum, males, post mortem SDAT
  Ethanolamine phospholipid ratio to M01, Mean, Post Mortem SDAT Male: 1.000
[2]; serum, males, post mortem SDAT vs post mortem control
  Ratio of ethanolamine phospholipid ratio to M01, SDAT vs Control (post mortem, males): 1.000
[2]; serum, males, post mortem control
  Ethanolamine phospholipid ratio to M01, Mean, Post Mortem Ctl, Male: 1.000
